Results from PubChem BioAssay AID504467 (National Center for Advancing Translational Sciences (NCATS), 2011).
The campaign covered roughly 330,000 compounds. About 7,700 (2.3%) were called active. Inconclusive results, whose numbers are uncertain, are shown with a selection of clear calls. Calls follow the shape of the dose curve; as a rule, active = well fitted inhibition curve with a large enough effect; inconclusive = small, poorly fitted or top-dose-only effect, or effect the other way; inactive = flat fitted curve, though single readings scatter. Potencies beside an inconclusive call are fits to weak or partial responses and may not hold up.
% is scaled to controls: 0 for no effect and ±100 for the full control effect; potency is read from the fitted curve at half-maximal effect.

Assay: qHTS screen for small molecules that inhibit ELG1-dependent DNA repair in human embryonic kidney (HEK293T) cells expressing luciferase-tagged ELG1; also: nearly all actives have a fitted effect of over 55% in size
Conditions: HEK293T ELG1-luciferase reporter, luminescence, 16 h, DNA damage induced by 5-fluorouridine; activity change, negative = inhibition: at 46.1 µM (top of the series)
Method in brief: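 In this reporter screen, reduction of luminescence relative to DMSO vehicle indicated activity. Compounds and 5-fluorouridine were added together to 2,000 cells per well, incubated for 16 hr at 37 °C, then developed with ONE-Glo.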
In the case of `CCOC(=O)C1(CCOC)CCN(C2C3CC4CC(C3)CC2C4)CC1` (centres undefined), the “activity change, negative = inhibition” value is reported as inactive: 7.54%.
For `COc1ccc(-c2cc(C(F)(F)F)n3nc(C(=O)NCc4ccco4)cc3n2)cc1`, the Potency was inconclusive: 16.4 µM [inhibitor, partial curve, poor fit].
For `COCC(=O)Nc1ccc(N(C)C)cc1`, the Potency was inconclusive: 15.8 µM [activator, partial curve, poor fit].
With `O=C(Nc1nc2ccccc2n1CCN1CCOCC1)c1ccccc1` the Potency was inconclusive: 11.6 µM [inhibitor, partial curve, poor fit].
For `O=C(Nc1ccc(Cl)cc1)Nc1nnc(SCc2ccccc2)s1`, the “activity change, negative = inhibition” value was inactive: 6.27%.
In the case of `CCN(CC)CCNC(=O)c1ccc(NC(=O)c2cc(-c3ccco3)nc3ccccc23)cc1`, the “activity change, negative = inhibition” value is reported as inactive: -3.77%.
In the case of `C[C@@H](C(=O)NCCc1ccc(F)cc1)N1C(=O)N2CCc3c([nH]c4ccccc34)[C@@]2(C)C1=O`, the Potency is reported as inconclusive: 25.9 µM [inhibitor, single point].
With `CCOc1cc(C(=O)OCc2cccc(OC)c2OC)ccc1OCC(=O)N1CCOCC1` the Potency was inconclusive: 29.1 µM [inhibitor, single point].
With `O=C(NNc1ncccc1-n1cccc1)c1ccc(Cl)cc1` the Potency was inconclusive: 2.06 µM [activator, partial curve, poor fit].
In the case of `Cc1ccc(NC(=S)c2ccc3ccccc3n2)c(C)c1`, the Potency is reported as inconclusive: 10.3 µM [activator, partial curve].
With `Cn1cccc1-c1cc(C(=O)N/N=C/c2ccccc2Cl)[nH]n1` the Potency was inconclusive: 9.2 µM [activator, partial curve].
For `COc1ccc(OC)c(/C=N/NC(=O)CCCC(=O)Nc2cccc(Br)c2)c1`, the Potency was inconclusive: 18.4 µM [inhibitor, single point].
In the case of `CCCCOc1ccc(N(CC(=O)NCCOC)C(=O)CCC(=O)Nc2ccccn2)cc1`, the “activity change, negative = inhibition” value is reported as inactive: 0.699%.
In the case of `Cc1csc2nc(NC(=O)c3ccccc3)sc(=O)c12`, the Potency is reported as inconclusive: 25.9 µM [activator, single point].
With `COc1cccc(NC(=S)NCc2cccs2)c1` the Potency was inconclusive: 10.3 µM [activator, partial curve, poor fit].
With `CN(C(=O)c1ccoc1)c1ccc2ccccc2c1` the “activity change, negative = inhibition” value was inactive: -9.27%.
In the case of `COC(=O)c1nn(-c2c(C)n(C)n(-c3ccccc3)c2=O)cc1O`, the “activity change, negative = inhibition” value is reported as inactive: -1.44%.
With `CC(=O)c1ccc(N2CCC(c3cc(-c4ccc(Cl)cc4Cl)n[nH]3)CC2)c([N+](=O)[O-])c1` the Potency was inconclusive: 29.1 µM [inhibitor, single point].
In the case of `CN(C)c1ccc(/C=C2\SC(=O)N(CCc3nnc(N)s3)C2=O)cc1`, the Potency is reported as inconclusive: 0.411 µM [activator, full curve, poor fit].
In the case of `Cc1ccc(C)c(N2CCN(c3ccc4cc(S(=O)(=O)N5CCCCC5)ccc4n3)CC2)c1`, the Potency is reported as inconclusive: 13 µM [inhibitor, partial curve, poor fit].
In the case of `COc1ccc(S(=O)(=O)N2CCN(CCc3ccccc3)CC2)c(OC)c1`, the Potency is reported as inconclusive: 18.3 µM [inhibitor, partial curve].
For `COc1ccc(C2=NOC(CNC(N)=S)C2)cc1` (centres undefined), the Potency was inconclusive: 10.3 µM [activator, partial curve].
In the case of `O=c1cc(/C=C/c2c(F)cccc2Cl)[nH]c2ccccc12`, the Potency is reported as inconclusive: 13 µM [activator, partial curve].
With `Cc1c(/C=N/NC(=O)c2cccnc2)c2ccccn2c1C(=O)c1ccc(F)cc1` the Potency was active: 18.4 µM.
In the case of `COc1ccc(C(=O)OCCCOC(=O)c2ccc(OC)cc2OC)c(OC)c1`, the “activity change, negative = inhibition” value is reported as inactive: -1.72%.
For `COc1c(C(=O)NNC(=O)c2ccccc2)csc1Br`, the Potency was inconclusive: 20.6 µM [activator, partial curve].
In the case of `CCOC(=O)/C=c1\s/c(=C\c2ccc(C)cc2)c(=O)n1CC(=O)NCc1ccco1`, the Potency is reported as inconclusive: 29.1 µM [activator, single point].
With `COc1ccc(C(=O)N(C)Cc2cnn(Cc3ccccc3)c2)cc1S(=O)(=O)N1CCOCC1` the “activity change, negative = inhibition” value was inactive: 1.48%.
In the case of `COc1ccc(C2CC(c3ccccc3)Nc3nc(N)nn32)cc1` (centres undefined), the Potency is reported as inconclusive: 1.3 µM [activator, full curve].
With `Cc1ccc2[nH]c3c(=O)n(Cc4ccco4)cnc3c2c1` the Potency was inconclusive: 32.6 µM [inhibitor, partial curve, poor fit].
For `COc1cccc(/C=N/NC(=O)CNC(=O)COc2ccccc2)c1O`, the Potency was inconclusive: 3.66 µM [inhibitor, partial curve, poor fit].
In the case of `O=C(Nc1ccc(OC(F)F)c(Cl)c1)c1ccccn1`, the Potency is reported as inconclusive: 4.61 µM [activator, partial curve].
For `COc1cccc(CNC(=O)C(c2ccc(Cl)cc2)C(C)C)c1` (centres undefined), the “activity change, negative = inhibition” value was inactive: -11%.
In the case of `CC1CCCC(NC(=O)CN2CCN(Cc3ccc(Cl)cc3)C2=O)C1C` (centres undefined), the Potency is reported as inconclusive: 20.6 µM [inhibitor, single point].
In the case of `O=C(NN=C1CCC(=NNC(=O)c2ccccn2)CC1)c1ccccn1`, the Potency is reported as inconclusive: 23.1 µM [activator, partial curve].
For `CCS(=O)(=O)N1CCC(NC(=O)C(Cc2cc(OC)ccc2OC)NC(C)=O)CC1` (centres undefined), the “activity change, negative = inhibition” value was inactive: -1.43%.
With `Nc1c(Cl)ncnc1N/N=C/c1ccccn1` the Potency was inconclusive: 6.51 µM [activator, single point].
For `COc1ccccc1NS(=O)(=O)c1cccc(C(=O)NNC(=O)c2ccc(O)c(Cl)c2)c1`, the “activity change, negative = inhibition” value was inactive: 9.33%.
In the case of `COC(=O)c1ccc(/C=C2/SC(=S)N(CCC(=O)N3CCOCC3)C2=O)cc1`, the “activity change, negative = inhibition” value is reported as inactive: 7.73%.
For `CCCCNC(=O)C(CC)Sc1nc2sc(C(=O)OC)c(C)c2c(=O)n1N` (centres undefined), the Potency was inconclusive: 20.6 µM [inhibitor, partial curve].
In the case of `COc1ccc(N(C(=O)Cc2cccs2)C(C(=O)NC2CCCC2)c2ccncc2)cc1OC` (centres undefined), the “activity change, negative = inhibition” value is reported as inactive: 5.12%.
With `Cc1ccc2c(c1)c1c(n2CC(O)Cn2c(C)nc3ccccc32)C(=O)CCC1` (centres undefined) the Potency was inconclusive: 20.6 µM [inhibitor, single point].
For `COc1ccc2cc(-c3ccccc3)c(=O)oc2c1`, the Potency was inconclusive: 3.26 µM [activator, full curve].
In the case of `COc1ccccc1-n1nnnc1SCC(=O)N(CC(C)C)C1CCS(=O)(=O)C1` (centres undefined), the Potency is reported as inconclusive: 2.06 µM [activator, partial curve, poor fit].
